Measurements from patent US20030180735A1, “Screening method” (priority 1999, published 2003).

System: primary human neutrophils
Experiment: Neutrophil gene expression, Incyte LifeGrid microarray
Format: cell-based
Conditions: GM-CSF (50U)
Description: Primary human neutrophils are isolated and purified from peripheral blood of normal healthy individuals. Neutrophils are resuspended in serum containing culture medium together with GM-CSF (50U) at a concentration of 2×10^6/ml, and cultured for 0 h (control), 2 h, 4 h and 6 h at 37° C. After these times, total cellular RNA is extracted and this used as the starting material for analysis of gene expression changes.
Primary human neutrophils are isolated and purified from peripheral blood of normal healthy individuals. Neutrophils are resuspended in serum containing culture medium together with GM-CSF (50U) at a concentration of 2×10^6/ml, and cultured for 0 h (control), 2 h, 4 h and 6 h at 37° C. After these times, total cellular RNA is extracted and this used as the starting material for analysis of gene expression changes using the Incyte “LifeGrid” microarray. Following cluster analysis, a cluster of genes are identified that contained several genes involved in neutrophil survival and whose transcription is up—regulated upon GM-CSF treatment. This cluster, which included BcI2-A1 (a ‘known’ antiapoptotic neutrophil BCL2 family member) is termed the ‘survival’ cluster (See FIG. 14). Among these genes, one group that could be clearly identified are those genes whose protein products are involved in protecting the cell against an increased oxidative environment (FIG. 14). […] Since all these gene products are attenuators of the oxidative cellular response it is indicative that GM-CSF protects the cell by reducing the harmful effects of reactive oxygen species. The corollary therefore is that spontaneous apoptosis must be due to an uncontrolled oxidative environment within the cell. Furthermore, this reaffirms that the neutrophils response to reactive oxidative species is […] of the glutathione system.
Methodology is as described by manufacturer, for Human LifeGrid™ arrays. Essentially, total cellular RNA (1 μg to 20 μg) or polyA+ mRNA (100 ng to 5 μg) is incubated with an oligo (dT) primer. Primed RNA is reverse transcribed to first stand cDNA in a reaction containing M-MLV reverse transcriptase (RT; alternatively Superscript II is used (Life Sciences)), RT buffer, dNTPs and [α-^33P] dCTP (2000-4000 Ci/mmol) at 42° C. for 1 to 5 h.
Methodology is as described by manufacturer, for Human LifeGrid™ arrays.

## GM-CSF: well-characterised neutrophil growth/survival factor (cytokine)
2-6 h, of ˜8000 genes on filter
  number of genes changing expression >2-fold vs control 0 h: greater than 360 genes
2 h post-isolation
  number of genes down-regulated: ~230 genes
  number of genes up-regulated: 16 genes
4 h post-isolation
  number of genes up-regulated: 65 genes
6 h post-isolation
  number of genes up-regulated: 155 genes
